Values from PubChem BioAssay AID504774 (Drosophila RNAi Screening Center, 2011).

- Screen: 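Knock-downs that shift viability of MMS-exposed cells relative to untreated ones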 (primary screen)
- System: Drosophila Kc167 cells
- Reagents: long dsRNA against Drosophila genes, about 0.25 µg dsRNA per well
- Time to read-out: about 6 days: 3 days knock-down, then 3 days with or without MMS
- Conditions: methyl methanesulphonate 0.004% (w/v) for 3 days after knock-down
- Measurement: 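ATP-dependent luminescence as a measure of live cells in MMS-exposed wells, quantile normalised within each plate, with replicate values also given as a mean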
- Reading the numbers: mean viability with MMS and viability with MMS: higher = more surviving cells after MMS
The screen tested about 23,000 reagents; shown is an unselected part of those that have a named target and a result. 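Values are quantile-normalised luminescence on an arbitrary scale; higher means more cells surviving MMS.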 Names joined by + are all predicted targets of the reagent. Reagent sequences are not shown.

The first 6 entries, ahead of the listing:
| predicted target | DRSC id | mean viability with MMS | viability with MMS, replicate 1 | viability with MMS, replicate 2 |
| --- | --- | --- | --- | --- |
| yellow-b | DRSC03639 | 3.60e6 | 3.90e6 | 4.31e6 |
| CG14014 | DRSC02345 | 3.61e6 | 4.13e6 | 4.01e6 |
| elgi | DRSC10242 | 3.65e6 | 4.15e6 | 4.10e6 |
| CG33230 | DRSC08602 | 3.46e6 | 3.92e6 | 3.92e6 |
| fus | DRSC05569 | 3.52e6 | 4.11e6 | 3.88e6 |
| fus | DRSC07107 | 3.57e6 | 4.06e6 | 4.04e6 |

Main list, from the first entry:
| predicted target | DRSC id | mean viability with MMS | viability with MMS, replicate 1 | viability with MMS, replicate 2 |
| --- | --- | --- | --- | --- |
| yellow-b | DRSC03639 | 3.60e6 | 3.90e6 | 4.31e6 |
| CG14014 | DRSC02345 | 3.61e6 | 4.13e6 | 4.01e6 |
| elgi | DRSC10242 | 3.65e6 | 4.15e6 | 4.10e6 |
| CG33230 | DRSC08602 | 3.46e6 | 3.92e6 | 3.92e6 |
| fus | DRSC05569 | 3.52e6 | 4.11e6 | 3.88e6 |
| fus | DRSC07107 | 3.57e6 | 4.06e6 | 4.04e6 |
| na | DRSC19639 | 3.58e6 | 4.06e6 | 4.05e6 |
| laf | DRSC12246 | 3.36e6 | 3.84e6 | 3.72e6 |
| CG33978 | DRSC17106 | 3.54e6 | 4.06e6 | 3.97e6 |
| geminin | DRSC04984 | 2.82e6 | 3.41e6 | 3.46e6 |
| fit | DRSC15280 | 3.71e6 | 4.41e6 | 4.01e6 |
| CG3436 | DRSC00605 | 3.00e6 | 3.21e6 | 3.42e6 |
| CG17050 (retired record) | DRSC06651 | 3.54e6 | 4.20e6 | 3.92e6 |
| bif | DRSC18901 | 3.45e6 | 3.92e6 | 3.92e6 |
| bif | DRSC20313 | 3.65e6 | 4.21e6 | 4.07e6 |
| Hacd2 | DRSC03181 | 3.54e6 | 3.99e6 | 4.04e6 |
| Past1 | DRSC16784 | 3.55e6 | 4.01e6 | 4.05e6 |
| CG13760 | DRSC18617 | 3.49e6 | 4.02e6 | 3.92e6 |
| NO66 | DRSC18252 | 3.42e6 | 3.86e6 | 3.91e6 |
| GstE12 | DRSC04047 | 3.28e6 | 3.64e6 | 3.66e6 |
| Oatp74D | DRSC09491 | 3.76e6 | 3.95e6 | 4.50e6 |
| Oatp74D | DRSC10883 | 3.61e6 | 4.03e6 | 4.14e6 |
| Sqor | DRSC08453 | 3.67e6 | 4.23e6 | 4.09e6 |
| CG17839 | DRSC10290 | 3.47e6 | 4.00e6 | 3.86e6 |
| CG17839 | DRSC10291 | 3.46e6 | 3.91e6 | 3.89e6 |
| Lcp3 | DRSC07457 | 3.55e6 | 4.03e6 | 4.02e6 |
| Cyp308a1 | DRSC20238 | 3.46e6 | 3.98e6 | 3.90e6 |
| CG42496 + Ppcdc | DRSC03886 | 3.41e6 | 3.77e6 | 4.00e6 |
| CG6144 | DRSC02934 | 1.74e6 | 3.95e6 | 3.87e6 |
| CG42715 (retired record) | DRSC05499 | 3.47e6 | 4.04e6 | 3.88e6 |
| RpL23 | DRSC04648 | 2.84e6 | 3.47e6 | 3.43e6 |
| PolG1 | DRSC03621 | 3.77e6 | 4.20e6 | 4.21e6 |
| Osi4 | DRSC12134 | 3.51e6 | 4.00e6 | 3.97e6 |
| sky | DRSC02383 | 3.69e6 | 4.36e6 | 4.10e6 |
| sky | DRSC03214 | 3.56e6 | 4.48e6 | 3.87e6 |
| sky | DRSC03215 | 3.65e6 | 4.04e6 | 4.23e6 |
| CG17329 | DRSC01926 | 3.45e6 | 3.94e6 | 3.88e6 |
| Msh6 | DRSC10759 | 3.62e6 | 4.12e6 | 4.07e6 |
| CG8765 | DRSC11041 | 3.22e6 | 3.63e6 | 3.66e6 |
| CG8765 | DRSC23043 | 3.41e6 | 3.88e6 | 3.88e6 |
| CG9114 | DRSC20155 | 3.53e6 | 4.09e6 | 3.92e6 |
| Dg | DRSC06718 | 3.58e6 | 3.94e6 | 4.17e6 |
| dah | DRSC20320 | 3.67e6 | 4.04e6 | 4.39e6 |
| CG31917 + Tfb5 | DRSC02362 | 3.21e6 | 3.53e6 | 3.55e6 |
| CG31917 + Tfb5 | DRSC02363 | 3.03e6 | 3.38e6 | 3.37e6 |
| Mfap1 | DRSC08154 | 3.08e6 | 3.63e6 | 3.65e6 |
| frj | DRSC03250 | 3.39e6 | 3.70e6 | 3.85e6 |
| swaPsi | DRSC21685 | 3.56e6 | 4.07e6 | 4.01e6 |
| Cpr47Ec | DRSC07332 | 3.56e6 | 4.05e6 | 4.06e6 |
| Or49b | DRSC07494 | 3.51e6 | 3.95e6 | 3.75e6 |
| CG33298 | DRSC02210 | 3.53e6 | 3.85e6 | 4.17e6 |
| CG33298 | DRSC02672 | 3.65e6 | 4.36e6 | 3.96e6 |
| Dsp1 | DRSC20315 | 2.58e6 | 3.37e6 | 3.37e6 |
| Dsp1 | DRSC23078 | 3.47e6 | 4.00e6 | 3.89e6 |
| CR31846 (retired record) | DRSC22272 | 3.58e6 | 4.08e6 | 3.99e6 |
| CG9727 | DRSC12585 | 3.61e6 | 4.07e6 | 4.14e6 |
| Taf12L | DRSC00467 | 3.64e6 | 4.14e6 | 4.08e6 |
| ebd2 | DRSC11682 | 3.43e6 | 3.87e6 | 3.87e6 |
| Ir60e | DRSC04227 | 3.63e6 | 4.04e6 | 4.21e6 |
| Cpr47Ee | DRSC06343 | 2.48e6 | 2.97e6 | 2.97e6 |
| Cpr47Ee | DRSC23164 | 3.52e6 | 3.96e6 | 4.06e6 |
| CG8152 | DRSC07083 | 3.62e6 | 4.19e6 | 4.09e6 |
| CG32719 | DRSC17525 | 3.70e6 | 4.17e6 | 4.12e6 |
| p130CAS | DRSC07862 | 3.62e6 | 3.94e6 | 4.26e6 |
| p130CAS | DRSC08257 | 3.58e6 | 4.01e6 | 4.12e6 |
| CG12439 | DRSC02168 | 3.55e6 | 3.92e6 | 4.14e6 |
| P5CDh1 | DRSC11801 | 3.49e6 | 4.01e6 | 3.90e6 |
| CG31999 | DRSC17131 | 3.51e6 | 3.98e6 | 3.98e6 |
| CG31999 | DRSC17133 | 3.54e6 | 3.95e6 | 4.08e6 |
| CG31195 | DRSC13440 | 3.50e6 | 3.98e6 | 3.99e6 |
| CG31802 | DRSC02459 | 3.43e6 | 3.99e6 | 3.79e6 |
| fd102C | DRSC17203 | 3.55e6 | 3.99e6 | 4.08e6 |
| CG40198 | DRSC21068 | 3.44e6 | 3.98e6 | 3.82e6 |
| adp | DRSC06916 | 3.61e6 | 4.09e6 | 4.10e6 |
| ACXD | DRSC07843 | 3.45e6 | 3.95e6 | 3.90e6 |
| Pop1 | DRSC17739 | 3.51e6 | 4.02e6 | 4.38e6 |
| CG32085 | DRSC10138 | 3.54e6 | 4.09e6 | 3.94e6 |
| CG32085 | DRSC10139 | 3.53e6 | 4.22e6 | 3.78e6 |
| CG32085 | DRSC10576 | 3.41e6 | 3.97e6 | 3.73e6 |
| hay | DRSC11354 | 3.20e6 | 3.68e6 | 3.70e6 |
| CG7443 | DRSC16244 | 3.59e6 | 3.94e6 | 4.21e6 |
| Zip71B | DRSC09686 | 3.52e6 | 4.05e6 | 3.94e6 |
| CG34454 | DRSC07864 | 3.54e6 | 4.19e6 | 3.83e6 |
| GramD1B | DRSC00426 | 3.66e6 | 3.98e6 | 4.27e6 |
| GramD1B | DRSC00591 | 3.44e6 | 3.98e6 | 3.74e6 |
| CG12481 | DRSC19461 | 3.65e6 | 4.18e6 | 4.07e6 |
| Kal1 | DRSC15983 | 3.46e6 | 3.91e6 | 3.93e6 |
